Consider 4 molecules from paper PMC12303078.

In assay [1] the target is MGA (mouse (endogenous in ESCs)) (UniProt A2AWL7). Put plainly: co-IP; anti-MGA antibody on Dynabeads with anti-rabbit IgG, overnight 4°C; nuclear extract / lysate (10 mM Tris-HCl pH8.0, 1 mM EDTA, 140 mM NaCl, 1% NP-40) of wild-type, parental, MGAΔFAM or Zmym2-null mouse ESCs; with or without a mixture of DNase and RNase; western blot. (In western blotting, separated proteins are transferred to a membrane and probed.)

Assay [2] deals with T1, 3×Flag-tagged carboxy-terminal domain of MGA (aa2445-2844) (UniProt A2AWL7).
T1 sequence: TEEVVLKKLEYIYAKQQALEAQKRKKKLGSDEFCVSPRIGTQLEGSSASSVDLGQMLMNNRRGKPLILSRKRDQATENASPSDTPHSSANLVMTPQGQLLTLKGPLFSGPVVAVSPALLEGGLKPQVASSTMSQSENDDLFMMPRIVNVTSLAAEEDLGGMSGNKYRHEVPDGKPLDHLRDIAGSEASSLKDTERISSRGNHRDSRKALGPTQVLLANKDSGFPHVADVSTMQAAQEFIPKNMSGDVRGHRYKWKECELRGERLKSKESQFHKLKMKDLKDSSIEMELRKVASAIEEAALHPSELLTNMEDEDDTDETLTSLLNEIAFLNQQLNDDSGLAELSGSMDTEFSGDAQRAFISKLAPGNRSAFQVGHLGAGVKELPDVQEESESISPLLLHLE
Description: co-IP; HEK293FT cells co-transfected with Flag-tagged MGA C-terminal portion (wild type or mutants) and HA-tagged ATF7IP; whole-cell extracts 48 h after transfection; Dynabeads with anti-mouse IgG antibody for immunoprecipitation; western blot.

For assay [3], the target named is MGA (mouse (endogenous in ESCs)) (UniProt A2AWL7). Description: co-IP; anti-MGA antibody, lysate of Atf7ip-null mouse ESCs; western blot for SETDB1 and PCGF6.

These are yes or no findings as the source states them, for the method shown. In cells and extracts the contact can be indirect. Some binding calls cover weakened binding; strength is not graded here. For some assays here: Where a sequence is shown, tags or fusion partners need not be part of it.

B1: ZMYM2 (protein, UniProt Q9CU65 1-1376)
chain: MDTSSVGTLELTDQTPVLLGSTAMATSLTNVGNSFSGPPNPLVSRSSKFQNSSVEDDDDVVFIEPVQPPPSSAPLVADQRPITFTSSKNEELQGNDPKILPSSKELAPQKGSVSETIVIDDEEDMETNQGQEKSSSNFIERRPSETKNRTNDVDFSSSTFSRSKVNAGVSNSGITTEPDSEIQIANVTTLETGVSSVSDGQLESTDGRDMNLMITHVTSLHNTSLGDGSNGLQSSNFGVNIQTYTPSLTSQTKAGVGPFNPGRMNVAGDVFQNGESAPHHNPDSWISQSASFPRNQKQQGVDSLSPVASLPKQIFQPSNQQPTKPVKVTCANCKKPLQKGQTAYQRKGSAHLFCSTTCLSSFSHKPAPKKLCVMCKKDITTMKGTIVAQVDSSESFQEFCSTSCLSLYEDKQSPAKGALNKSRCTICGKLTEIRHEVSFKNMTHKLCSDHCFNRYRMANGLIMNCCEQCGEYLPSKGAGNNVLVVDGQQKRFCCQSCVTEYKQVGSHPSFLKEVRDHMQDSFLMQPEKYGKLTTCTGCRTQCRFFDMTQCIGPNGYMEPYCSTACMNSHKTKYAKSQSLGIICHFCKRNSLPQYQATMPDGKLYNFCNSSCVAKFQALSMQSSPNGQFVAPSDIQLKCNYCKNSFCSKPEILEWENKVHQFCSKTCSDDYKKLHCIVTYCEYCQEEKTLHETVNFSGVKRPFCSEGCKLLYKQDFARRLGLRCVTCNYCSQLCKKGATKELDGVVRDFCSEDCCKKFQEWYYKAARCDCCKSQGTLKERVQWRGEMKHFCDQHCLLRFYCQQNEPNMTTQKGPENLHYDQGCQTSRTKMTGSAPPPSPTPNKEMKNKAILCKPLTMTKATYCKPHMQTKSCQTDENWKTEYVPVPIPVPVYVPVPMHMYSQNIPVPTTVPVPVPVPVFLPAPLDSSEKIPATVEDLKSKVSSDPLDSELLTMTDMMTEEEGKAEASNINSVIIETDIIGSDLTKNSDPDIQSNMPDVPYEPDLDIEIDFPRAAEELDMENEFLLPPVFGEEYEEQPRPRSKKKGTKRKAVSGYQSHDDSSDNSECSFPFKYTYGVNAWKHWVKTRQLDEDLLVLDELKSSKSVKLKEDLLSHTTAELNYGLAHFVNEIRRPNGENYAPDSIYYLCLGIQEYLCGSNRKDNIFIDPGYQMFEQELNKILRSWQPSILPDGSIFSRVEEDYLWRIKQLGSHSPVALLNTLFYFNTKYFGLKTVEQHLRLSFGTVFRHWKKNPLTMENKACLRYQVSSLCGTDNEDKIATGKRKHEDDEPVFEQVENTANPSRCPVKMFECYLSKSPQNLNQRMDVFYLQPECSSSTDSPVWYTSTSLDRNTLENMLVRVLLVKDIYDKDNYELDEDTD
For the molecule B1, the binding result in assay [1] is given as “binds”.

B2: ATF7IP (protein, UniProt Q7TT18 1-1306)
chain: MDSVEEPQKKVFKARKTMRASDRQQLDAVHRVKGELLRADGKLLNGSHENGDLDPTSPLENTDCIQDREEVNGIDGICFQSEESTTEWKETPCMPNVAVKNKQEDLNSEALSPSITCDLSSRVTTEPGSGSPASDNPGCGTPVSDNPASDNPASDNPASDNPDSGDLAAGELATTVQATGDSACEEPPSSDPSSSDPTSSEPSSSEPTCSEPISGDPVSEEAASHDLVSGDSTCSEPVSGEPVSHEAASSEPATSEPASDEPVARVVAACELAPGESALDDCAPSGDSQSDEPPSSEDSLPRSVCSGLASGELTPGELSVEPATDTVKPSSSAVCEAGPDPDKTEPSSNNSDDCPGKSEDDEHLDQIQSKDSCDEGNKVNSNVVEKEEPLETHSAIICSDLPPENTTKIAEDPIAEPALEEEAISSSMEVDQSEKDEHKSPAEPVAAVSEDPAEEDKEDTVVDNTDSMETDEIIPILEKLAPTEDELSCFSKASLLPVETSQDLEDKMEGSFGSPSKQESSENLPKEAFLVLSDEEDLSCGKDESEAVAQSKMSTPEGEKSEKDGKAEEEERVPAEEQPPVRNEFSRRKRSKSEDMDSVESKRRRYMDEEYEAEFQVKITAKGDINQKLQKVIQWLLQEKLCALQCAVFDKTLAELKTRVEKIECNKRHKAVLTELQAKIARLTKRFGAAKDDLKKRQESPPNPPISPGKPANDTNSNNNMTYRNAGTVRQLLESKRNVSEGPPPSFQTPVNTVSSASHATSTAVVSSQPKLQTSATSGSLPAAPLLPAPSTATVVATTQVPSGTPQPTISLQPLPVILHVPVAVTSQPQLLQSHPGTLVTNQPSGNVEFISVQSQPTVSGLTKNPVSLPPLPNPTKPNIPSVPSPSSIQRNSSTTAAPLGTTLAVQAVPTAHSIVQATRTSLPTVGPSGLYSSSSSRGPIQMKIPISTFSPPSSAEQNSSATPRIVTENQTNKTVDSSINKKAADSTSQSGKASSSDSSGVIDLTMDDEESGTTQDPKKISPPSSSTVSTSQPMSRPLQPILPAPPLQPSGVPTSGPSQATIHVLPTAPTTVNVTHRPVTQVTTRLPVPRAPANHQVVYTTLPAPTTQAPLRGTVMQAPAVRQVNPQNSVTVRVPQTTTYVVNNGLTLGSAGPQLTVHHRPPQVHNEPPRPLHPAPLPEAPQPQRLPPEAASTSLPQKPHLKLARVQSQNGIVLSWSVLEVDRSCATVDSYHLYAYHEEPSATVPSQWKKIGEVKALPLPMACTLTQFVSGSKYYFAVRAKDIYGRFGPFCDPQSTDVISSSQNS
In the case of B2, in assay [1], the binding entry is recorded as “binds”.

B3: HA-tagged ATF7IP (protein, UniProt Q7TT18 1-1306)
chain: B2 chain
Turning to B3, the binding entry in assay [2] is listed as “binds”.

B4: PCGF6 (protein, UniProt Q99NA9 1-353)
chain: MDEAETDATENKRASEAKRASAMPPPPPPPPPISPPALIPAPAAGEEGPASLGQAGAAGCSRSRPPALEPERSLGRLRGRFEDYDEELEEEEEMEEEEEEEEEMSHFSLRLESGRADSEDEEERLINLVELTPYILCSICKGYLIDATTITECLHTFCKSCIVRHFYYSNRCPKCNIVVHQTQPLYNIRLDRQLQDIVYKLVINLEEREKKQMHDFYKERGLEVPKPAAPQPVPSSKGKTKKVLESVFRIPPELDMSLLLEFIGANEDTGHFKPLEKKFVRVSGEATIGHVEKFLRRKMGLDPACQVDIICGDHLLERYQTLREIRRAIGDTAMQDGLLVLHYGLVVSPLKIT
As for B4, the binding result in assay [3] and in assay [1] was “binds” each time.
